Reference: the supplement of paper PMC7661543
± gives the standard deviation of the averaged measurements. The effect of the compound repeats well; differences between the knockouts mostly do not.

Tested on: ZR-75-1
Test: relative cell number vs DMSO control (72 h) (% of DMSO); higher = less growth inhibition (more cells)
Description: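 QMAP-Seq: a pool of 5 breast cancer cell lines (ZR-75-1, SKBR3, HCC-38, MDA-MB-231, BT-20), each carrying 12 doxycycline-inducible Cas9 sgRNA perturbations (11 knockouts plus non-targeting sgNT), was treated with compounds for 72 h at four 10-fold doses (10 nM-10 uM or 1 nM-1 uM range). Barcodes were amplified and sequenced, and cell number was interpolated from 293T spike-in standard curves. The result is expressed as % of the median of DMSO wells. Two biological replicates.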

[1] = sgRNA knockout: sgATF3, 1000 nM
[2] = sgRNA knockout: sgATF3, 10000 nM
[3] = sgRNA knockout: sgATF4, 1000 nM
[4] = sgRNA knockout: sgATF4, 10000 nM
[5] = sgRNA knockout: sgATF6, 1000 nM
[6] = sgRNA knockout: sgATF6, 10000 nM
[7] = sgRNA knockout: sgATG7, 1000 nM
[8] = sgRNA knockout: sgATG7, 10000 nM
[9] = sgRNA knockout: sgERN1, 1000 nM
[10] = sgRNA knockout: sgERN1, 10000 nM
[11] = sgRNA knockout: sgHSF2, 1000 nM
[12] = sgRNA knockout: sgHSF2, 10000 nM
[13] = sgRNA knockout: sgNFE2L2, 10 nM
[14] = sgRNA knockout: sgNFE2L2, 100 nM
[15] = sgRNA knockout: sgNFE2L2, 1000 nM
[16] = sgRNA knockout: sgNFE2L2, 10000 nM
[17] = sgRNA knockout: sgSLC35F2, 10 nM
[18] = sgRNA knockout: sgSLC35F2, 100 nM
[19] = sgRNA knockout: sgSLC35F2, 1000 nM
[20] = sgRNA knockout: sgSLC35F2, 10000 nM
[21] = sgRNA knockout: sgXBP1, 1000 nM
[22] = sgRNA knockout: sgXBP1, 10000 nM

Structure (SMILES) | relative cell number (sgRNA knockout: sgATF3, 10 nM) | relative cell number (sgRNA knockout: sgATF3, 100 nM) | relative cell number [1] | relative cell number [2] | relative cell number (sgRNA knockout: sgATF4, 10 nM) | relative cell number (sgRNA knockout: sgATF4, 100 nM) | relative cell number [3] | relative cell number [4] | relative cell number (sgRNA knockout: sgATF6, 10 nM) | relative cell number (sgRNA knockout: sgATF6, 100 nM) | relative cell number [5] | relative cell number [6] | relative cell number (sgRNA knockout: sgATG7, 10 nM) | relative cell number (sgRNA knockout: sgATG7, 100 nM) | relative cell number [7] | relative cell number [8] | relative cell number (sgRNA knockout: sgERN1, 10 nM) | relative cell number (sgRNA knockout: sgERN1, 100 nM) | relative cell number [9] | relative cell number [10] | relative cell number (sgRNA knockout: sgHSF2, 10 nM) | relative cell number (sgRNA knockout: sgHSF2, 100 nM) | relative cell number [11] | relative cell number [12] | relative cell number [13] | relative cell number [14] | relative cell number [15] | relative cell number [16] | relative cell number [17] | relative cell number [18] | relative cell number [19] | relative cell number [20] | relative cell number (sgRNA knockout: sgXBP1, 10 nM) | relative cell number (sgRNA knockout: sgXBP1, 100 nM) | relative cell number [21] | relative cell number [22]
Cc1cnc(-c2cnc(NCCNc3ccc(C#N)cn3)nc2-c2ccc(Cl)cc2Cl)[nH]1 | 119 ± 17 | 93 ± 8.8 | 120 ± 16 | 80.5 ± 19 | 111 ± 34 | 104 ± 16 | 116 ± 33 | 111 ± 7 | 99 ± 18 | 117 ± 12 | 98.9 ± 58 | 92.9 ± 20 | 76.9 ± 12 | 78.8 ± 22 | 91.1 ± 8 | 76.3 ± 20 | 108 ± 11 | 96.3 ± 5.6 | 83.8 ± 32 | 75 ± 28 | 84.3 ± 7 | 90 ± 1.7 | 89.1 ± 38 | 86.72 ± 0.86 | 75.2 ± 25 | 95.7 ± 14 | 68.3 ± 18 | 104 ± 44 | 87.5 ± 15 | 63.5 ± 34 | 38.5 ± 35 | 92.5 ± 9.4 | 72.1 ± 18 | 99.9 ± 2.2 | 87.3 ± 7.4 | 98.77 ± 0.83
Cc1ccccc1-n1c(Cn2cnc3c(N)ncnc32)nc2cccc(C)c2c1=O | 104 ± 7.2 | 123 ± 20 | 103 ± 13 | 97.3 ± 14 | 110 ± 26 | 138 ± 28 | 102 ± 40 | 102 ± 24 | 98 ± 2.5 | 136 ± 24 | 69.6 ± 1.3 | 88.9 ± 22 | 98.3 ± 18 | 108 ± 27 | 69.6 ± 28 | 95.9 ± 14 | 85.7 ± 17 | 114 ± 47 | 93.4 ± 9.7 | 114 ± 24 | 90.2 ± 9.2 | 97.1 ± 22 | 74.1 ± 9.5 | 91.9 ± 1.4 | 118 ± 15 | 118 ± 54 | 89.5 ± 3.4 | 106 ± 9.5 | 116 ± 22 | 140 ± 11 | 106 ± 66 | 96.5 ± 12 | 87.3 ± 6.8 | 104 ± 36 | 75.4 ± 12 | 98.7 ± 11
O=c1ncccn1[C@@H]1O[C@H](CO)[C@@H](O)[C@H]1O [Zebularine] | 117 ± 18 | 107 ± 15 | 101 ± 3.8 | 125 ± 45 | 116 ± 5.5 | 81.6 ± 50 | 85 ± 4.1 | 129 ± 33 | 166 ± 4.5 | 137 ± 14 | 99.9 ± 29 | 81.2 ± 33 | 103 ± 33 | 93.1 ± 5.9 | 91.4 ± 17 | 101 ± 31 | 101 ± 26 | 114 ± 5.9 | 104 ± 46 | 135 ± 20 | 124 ± 58 | 78.7 ± 3.5 | 98.1 ± 2.8 | 110.6 ± 0.53 | 98.7 ± 29 | 146 ± 11 | 74.7 ± 10 | 125 ± 16 | 117 ± 31 | 62.6 ± 4.1 | 61.2 ± 9.2 | 83 ± 56 | 98.5 ± 25 | 120 ± 4.4 | 89.2 ± 24 | 132 ± 28
Nc1ncn([C@H]2C[C@H](O)[C@@H](CO)O2)c(=O)n1 [Decitabine] | 91.9 ± 3.6 | 72 ± 16 | 56.3 ± 6.1 | 47.7 ± 1.4 | 91.3 ± 18 | 70.7 ± 13 | 56.7 ± 14 | 42 ± 1.8 | 99.6 ± 12 | 77.1 ± 14 | 48.9 ± 30 | 43.2 ± 29 | 76.8 ± 24 | 112 ± 26 | 63.7 ± 20 | 31.8 ± 8.3 | 90.4 ± 18 | 79.6 ± 2.9 | 75.1 ± 9.6 | 40.6 ± 0.54 | 102 ± 14 | 94.2 ± 10 | 65.4 ± 3 | 37.8 ± 0.78 | 81.6 ± 1.2 | 91.9 ± 5.2 | 55.2 ± 2.5 | 39.1 ± 5.2 | 71.5 ± 5.1 | 61.3 ± 23 | 61.4 ± 5.8 | 26.5 ± 10 | 75.5 ± 9.8 | 80.6 ± 13 | 72.83 ± 0.55 | 39.6 ± 2.2
C=CCc1cccc(/C=N/NC(=O)CN2CCN(Cc3ccccc3)CC2)c1O [PAC1] | 127 ± 4.5 | 102 ± 29 | 97.3 ± 3.9 | 24.8 ± 11 | 80.6 ± 4.7 | 80 ± 25 | 84.1 ± 12 | 22.9 ± 14 | 64.8 ± 21 | 93.4 ± 40 | 94.9 ± 43 | 15.2 ± 11 | 108 ± 11 | 94 ± 16 | 90.2 ± 31 | 22.3 ± 7.8 | 76.9 ± 40 | 93.8 ± 14 | 94.5 ± 12 | 23.1 ± 14 | 114 ± 10 | 92.2 ± 12 | 86.8 ± 2.3 | 19.6 ± 1.8 | 78.3 ± 23 | 74.7 ± 34 | 78.5 ± 6.9 | 20.4 ± 11 | 69.6 ± 49 | 47.7 ± 7.4 | 71.4 ± 37 | 17.8 ± 3 | 87.5 ± 25 | 83.8 ± 7.8 | 81.6 ± 7.8 | 19.4 ± 6.5
Clc1ccc(C2(c3ccc(-c4cn[nH]c4)cc3)CCNCC2)cc1 [AT7867] | 96.7 ± 23 | 139 ± 19 | 85.9 ± 12 | 10.2 ± 3.6 | 87.7 ± 42 | 89.6 ± 26 | 83.4 ± 14 | 16.6 ± 2.7 | 67.2 ± 13 | 130 ± 52 | 78.1 ± 39 | 13.8 ± 0.93 | 79.6 ± 16 | 114 ± 44 | 74.4 ± 26 | 8.94 ± 1.6 | 95.4 ± 22 | 102 ± 34 | 91.05 ± 0.87 | 13.2 ± 3.8 | 90.2 ± 11 | 113.7 ± 0.55 | 64.8 ± 17 | 11.3 ± 2.9 | 80.3 ± 14 | 114 ± 3.8 | 87.2 ± 25 | 11.5 ± 0.16 | 118 ± 14 | 96.01 ± 0.6 | 26.5 ± 5.3 | 16.4 ± 1.7 | 84.5 ± 1.5 | 105 ± 20 | 78.4 ± 12 | 9.22 ± 5
COc1cccc2c1C(=O)c1c(O)c3c(c(O)c1C2=O)C[C@@](O)(C(=O)CO)C[C@@H]3O[C@H]1C[C@H](N)[C@H](O)[C@H](C)O1 [Doxorubicin] | 90.6 ± 24 | 52.8 ± 25 | 23.8 ± 2.9 | 6.49 ± 1.9 | 86.2 ± 19 | 40.3 ± 6.6 | 29.8 ± 0.045 | 11.8 ± 5.7 | 90.9 ± 31 | 28.6 ± 6.2 | 18.2 ± 7.8 | 7.87 ± 6.1 | 63.9 ± 22 | 36.7 ± 1.5 | 19.9 ± 8.1 | 7.352 ± 0.029 | 75.3 ± 5.9 | 40.4 ± 3 | 24.2 ± 0.33 | 13.7 ± 5 | 62.6 ± 0.97 | 46 ± 22 | 25.6 ± 4.7 | 5.75 ± 1.3 | 77.2 ± 11 | 41.6 ± 2.7 | 23.3 ± 2.9 | 7.55 ± 0.35 | 88.1 ± 3 | 45 ± 6.9 | 25 ± 17 | 8.553 ± 0.058 | 70.3 ± 18 | 43.3 ± 14 | 21 ± 2 | 8.6 ± 2.5
C[C@]1(c2nc3c(C(N)=O)cccc3[nH]2)CCCN1 [Veliparib] | 118 ± 68 | 104 ± 38 | 86.8 ± 12 | 71.9 ± 27 | 106 ± 44 | 137 ± 8.5 | 102 ± 34 | 56.7 ± 7.5 | 122 ± 66 | 91.1 ± 23 | 116 ± 15 | 110 ± 13 | 120 ± 29 | 120 ± 9 | 101 ± 44 | 68.5 ± 3.9 | 124 ± 9.6 | 78.6 ± 11 | 109 ± 23 | 78.4 ± 3 | 103 ± 12 | 92 ± 13 | 79 ± 7.2 | 72.8 ± 3.1 | 129 ± 24 | 117 ± 22 | 101 ± 32 | 80.1 ± 2.6 | 128 ± 76 | 161 ± 15 | 94.8 ± 54 | 61.4 ± 18 | 113 ± 19 | 114 ± 9.2 | 98.8 ± 20 | 73.3 ± 5.5
C[C@@H](Oc1cc(-n2cnc3ccc(CN4CCN(C)CC4)cc32)sc1C(N)=O)c1ccccc1C(F)(F)F | 86 ± 9.1 | 17.2 ± 9.6 | 37.3 ± 9.1 | 31.7 ± 4.5 | 105 ± 4 | 27.3 ± 6.2 | 40 ± 7.3 | 36 ± 0.85 | 94.2 ± 31 | 23.6 ± 3.5 | 35.5 ± 2.5 | 36.7 ± 2.2 | 85.1 ± 31 | 24 ± 0.4 | 40.2 ± 3.6 | 39.3 ± 21 | 98.7 ± 6.7 | 19.5 ± 14 | 39.6 ± 7.2 | 47.5 ± 1.6 | 96.5 ± 16 | 30.5 ± 1 | 38.5 ± 11 | 42.5 ± 13 | 113 ± 0.63 | 21.6 ± 7.7 | 35.6 ± 14 | 42.9 ± 14 | 59.3 ± 4.9 | 26.9 ± 1.9 | 50.7 ± 11 | 24.3 ± 20 | 107 ± 2.3 | 20.2 ± 0.26 | 32.8 ± 3.3 | 37.8 ± 5.7

Complete entries, quoted from the list. Values in the order: relative cell number (sgRNA knockout: sgATF3, 10 nM)	relative cell number (sgRNA knockout: sgATF3, 100 nM)	relative cell number [1]	relative cell number [2]	relative cell number (sgRNA knockout: sgATF4, 10 nM)	relative cell number (sgRNA knockout: sgATF4, 100 nM)	relative cell number [3]	relative cell number [4]	relative cell number (sgRNA knockout: sgATF6, 10 nM)	relative cell number (sgRNA knockout: sgATF6, 100 nM)	relative cell number [5]	relative cell number [6]	relative cell number (sgRNA knockout: sgATG7, 10 nM)	relative cell number (sgRNA knockout: sgATG7, 100 nM)	relative cell number [7]	relative cell number [8]	relative cell number (sgRNA knockout: sgERN1, 10 nM)	relative cell number (sgRNA knockout: sgERN1, 100 nM)	relative cell number [9]	relative cell number [10]	relative cell number (sgRNA knockout: sgHSF2, 10 nM)	relative cell number (sgRNA knockout: sgHSF2, 100 nM)	relative cell number [11]	relative cell number [12]	relative cell number [13]	relative cell number [14]	relative cell number [15]	relative cell number [16]	relative cell number [17]	relative cell number [18]	relative cell number [19]	relative cell number [20]	relative cell number (sgRNA knockout: sgXBP1, 10 nM)	relative cell number (sgRNA knockout: sgXBP1, 100 nM)	relative cell number [21]	relative cell number [22]
C=CCc1cccc(/C=N/NC(=O)CN2CCN(Cc3ccccc3)CC2)c1O [PAC1] as listed: 127 ± 4.5	102 ± 29	97.3 ± 3.9	24.8 ± 11	80.6 ± 4.7	80 ± 25	84.1 ± 12	22.9 ± 14	64.8 ± 21	93.4 ± 40	94.9 ± 43	15.2 ± 11	108 ± 11	94 ± 16	90.2 ± 31	22.3 ± 7.8	76.9 ± 40	93.8 ± 14	94.5 ± 12	23.1 ± 14	114 ± 10	92.2 ± 12	86.8 ± 2.3	19.6 ± 1.8	78.3 ± 23	74.7 ± 34	78.5 ± 6.9	20.4 ± 11	69.6 ± 49	47.7 ± 7.4	71.4 ± 37	17.8 ± 3	87.5 ± 25	83.8 ± 7.8	81.6 ± 7.8	19.4 ± 6.5
C[C@@H](Oc1cc(-n2cnc3ccc(CN4CCN(C)CC4)cc32)sc1C(N)=O)c1ccccc1C(F)(F)F as listed: 86 ± 9.1	17.2 ± 9.6	37.3 ± 9.1	31.7 ± 4.5	105 ± 4	27.3 ± 6.2	40 ± 7.3	36 ± 0.85	94.2 ± 31	23.6 ± 3.5	35.5 ± 2.5	36.7 ± 2.2	85.1 ± 31	24 ± 0.4	40.2 ± 3.6	39.3 ± 21	98.7 ± 6.7	19.5 ± 14	39.6 ± 7.2	47.5 ± 1.6	96.5 ± 16	30.5 ± 1	38.5 ± 11	42.5 ± 13	113 ± 0.63	21.6 ± 7.7	35.6 ± 14	42.9 ± 14	59.3 ± 4.9	26.9 ± 1.9	50.7 ± 11	24.3 ± 20	107 ± 2.3	20.2 ± 0.26	32.8 ± 3.3	37.8 ± 5.7
